Key:
[1] = Taste assessment, 200 mm anchored visual analog scale (Example 2); set-up: species or system human; details: 200 mg sample, 200 mm VAS; for Taste, Max / Taste, Mean / Taste, Median / Taste, Min: N=10 subjects; for Taste assessment: one subject, very bad (low) to very good (high)
[2] = Smell assessment, 200 mm anchored visual analog scale (Example 2); set-up: species or system human; details: 200 mg sample, 200 mm VAS; for Smell, Max / Smell, Mean / Smell, Median / Smell, Min: N=10 subjects; for Smell assessment: one subject, very bad (low) to very good (high)

| Compound | Taste, Max [1] | Taste, Mean [1] | Taste, Median [1] | Taste, Min [1] | Taste assessment ([1]; entry 1) | Taste assessment ([1]; entry 2) | Taste assessment ([1]; entry 3) | Taste assessment ([1]; entry 4) | Taste assessment ([1]; entry 5) | Taste assessment ([1]; entry 6) | Taste assessment ([1]; entry 7) | Taste assessment ([1]; entry 8) | Taste assessment ([1]; entry 9) | Taste assessment ([1]; entry 10) | Smell, Max [2] | Smell, Mean [2] | Smell, Median [2] | Smell, Min [2] | Smell assessment ([2]; entry 1) | Smell assessment ([2]; entry 2) | further results |
| --- | --- | --- | --- | --- | --- | --- | --- | --- | --- | --- | --- | --- | --- | --- | --- | --- | --- | --- | --- | --- | --- |
| CCCC(=O)OCC(COC(=O)CCC)OC(=O)CCC [Tributyrin, propane-1,2,3-triyl tributanoate] | 5 | 3.30 | 3.00 | 2 | 5 | 3 | 3 | 4 | 4 | 3 | 2 | 3 | 3 | 3 | 5 | 3.00 | 3.00 | 2 | 3 | 3 | Smell assessment ([2]; entry 3): 2; Smell assessment ([2]; entry 4): 3; Smell assessment ([2]; entry 5): 3; Smell assessment ([2]; entry 6): 3; Smell assessment ([2]; entry 7): 4; Smell assessment ([2]; entry 8): 5; Smell assessment ([2]; entry 9): 2; Smell assessment ([2]; entry 10): 2 |
| CCCC(=O)O [Butyric Acid, butanoic acid] | 2 | 0.70 | 0.50 | 0 | 2 | 1 | 1 | 0 | 0 | 0 | 2 | 1 | 0 | 0 | 3 | 0.80 | 0.00 | 0 | 1 | 2 | Smell assessment ([2]; entry 3): 0; Smell assessment ([2]; entry 4): 0; Smell assessment ([2]; entry 5): 0; Smell assessment ([2]; entry 6): 0; Smell assessment ([2]; entry 7): 3; Smell assessment ([2]; entry 8): 2; Smell assessment ([2]; entry 9): 0; Smell assessment ([2]; entry 10): 0 |
| CCCC(=O)[O-].[Na+] [Sodium Butyrate, Sodium butyrate] | 6 | 3.50 | 4.00 | 0 | 3 | 4 | 6 | 4 | 0 | 0 | 5 | 3 | 4 | 6 | 44 | 17.40 | 13.00 | 3 | 14 | 12 | Smell assessment ([2]; entry 3): 6; Smell assessment ([2]; entry 4): 21; Smell assessment ([2]; entry 5): 27; Smell assessment ([2]; entry 6): 4; Smell assessment ([2]; entry 7): 38; Smell assessment ([2]; entry 8): 44; Smell assessment ([2]; entry 9): 5; Smell assessment ([2]; entry 10): 3 |
| CCCC(=O)O [L-Lysine Butyrate, L-lysine butyrate] | 108 | 101.50 | 101.00 | 93 | 100 | 102 | 103 | 100 | 107 | 102 | 100 | 93 | 100 | 108 | 115 | 105.10 | 102.5 | 98 | 115 | 109 | Smell assessment ([2]; entry 3): 98; Smell assessment ([2]; entry 4): 100; Smell assessment ([2]; entry 5): 114; Smell assessment ([2]; entry 6): 100; Smell assessment ([2]; entry 7): 102; Smell assessment ([2]; entry 8): 103; Smell assessment ([2]; entry 9): 101; Smell assessment ([2]; entry 10): 109 |

Source: patent publication EP4643657A1, “COMPOSITIONS CONTAINING SHORT-CHAIN FATTY ACID, METHODS OF USE, AND METHODS OF MAKING THEREOF” (Velocity Life Sciences, LLC, priority 2024, dated 2025)
